Laboratory results taken from patent US10980754B2, “Anti-fungal compounds” (SAINT LOUIS UNIVERSITY, priority 2016, dated 2021).

What follows are molecules tested on C. neoformans var grubii, KN99 (assay: Inhibition of C. neoformans growth, limiting dilution assay (MIC)). Details: Table 3; CC50/MIC.
Assay type: cell-based
Protocol: Strains and media. All inhibition assays were performed with C. neoformans var grubii, KN99 (serotype A, MATα; kindly provided by Jennifer Lodge). Two clinical strains of C. neoformans var grubii, serotype A, were kindly provided by Tamara Doering and Andre Spec. […] Each assay was done in triplicate and all values are the average of two or more independent assays. The data are presented as the average cell density as a percent of DMSO-only treated cells. […] However, these conditions are unlike conditions encountered by C. neoformans in mammalian infections, where nutrients are limited, and the pH and temperature are higher than in YPD media. The cryptococcal stress response to low glucose and high pH and temperature may alter its susceptibility to the inhibitors. It is also possible that the enzymes targeted by the inhibitors may render the cell temperature sensitive when inhibited. To better mimic growth in mammals, growth was tested without shaking in nutrient-limited media at 35° C. […] However, as the nutrient-limited media and higher temperature is more similar to mammalian cell growth conditions, these conditions were used for all further assays. […] All values were measured at least two times in independent experiments and the average MIC is reported.
O=C(Sc1cccccc1=O)c1ccccc1 [Compound 364] showed a TI of 230.
O=c1cccccc1S [Compound 363] showed a TI of 105.
In the case of Cc1ccc(CSc2cccccc2=O)cc1 [Compound 365], the TI is reported as roughly 2.

Same assay, conditions: therapeutic index, CC50/MIC
Work on CC(C)c1cccc(=O)c(O)c1 [Compound 47, β-thujaplicin] yielded a TI of 3.
With CC(C)c1ccc(O)c(=O)cc1 [Compound 48, γ-thujaplicin] the TI was 5.
O=C(Oc1cccccc1=O)c1ccc([N+](=O)[O-])cc1 [Compound 51, tropolone p-nitrobenzoate] gave a TI of 4.
In the case of Cc1cc(O)c(=O)c(O)cc1C(=O)c1ccccc1 [Compound 111], the TI is reported as 1.
With CC(C)=CCc1ccc(=O)c(O)cc1C(C)C [Compound 49, Nootkatin] the TI was 1.
O=C(Oc1cccccc1=O)c1ccc(Cl)cc1 [Compound 63] showed a TI of 6.
Cc1cc(O)c(=O)c(O)cc1C(=O)c1ccc(-c2ccccc2)cc1 [Compound 118] was tested, and the TI was 1.
Cc1ccc(C(=O)Nc2cccccc2=O)cc1 [Compound 60] gave a TI of 2.
Cc1ccccc1C(=O)Oc1cccccc1=O [Compound 281] gave a TI of 2.
Work on COc1ccc(C(=O)c2cc(O)c(=O)c(O)cc2C)cc1 [Compound 312, 4-(4-methoxybenzoyl)-2,7-dihydroxy-5-methylcyclohepta-2,4,6-trien-1-one] yielded a TI of 1.
With Cc1cc(O)c(=O)c(O)cc1C(=O)c1ccccc1O [Compound 311, 4-(2-hydroxybenzoyl)-2,7-dihydroxy-5-methylcyclohepta-2,4,6-trien-1-one] the TI was 1.
For Cc1ccc(O)c(=O)c(O)c1 [Compound 210], the TI was 5.
With C=C(C)C1CCc2c(c(C)cc(O)c(=O)c2O)C1 (stereo not shown) [Compound 56, Manicol] the TI was less than 1.
O=c1c(O)ccc(-c2ccccc2)cc1O [Compound 262, 2,7-dihydroxy-4-phenylcyclohepta-2,4,6-trien-1-one] showed a TI of 5.
In the case of CC(C)c1ccc(O)c(=O)c(O)c1 [Compound 46, β-thujaplicinol], the TI is reported as 3.
Cc1cc(O)c(=O)c(O)cc1C(=O)C1CC1 [Compound 310, 4-(cyclopropanecarbonyl)-2,7-dihydroxy-5-methylcyclohepta-2,4,6-trien-1-one] was tested, and the TI was 3.
Cc1cc(O)c(=O)c(O)cc1C(=O)O [Compound 319, 4,6-dihydroxy-2-methyl-5-oxocyclohepta-1,3,6-triene-1-carboxylic Acid] gave a TI of 2.
Cc1cc(O)c(=O)c(O)cc1-c1cccc2ccccc12 [Compound 146] gave a TI of 1.
Work on Cc1ccc(S(=O)(=O)Oc2cccccc2=O)cc1 [Compound 61] yielded a TI of less than 1.
With Cc1cc(O)c(=O)c(O)cc1C(=O)C(C)C [Compound 143] the TI was 2.
Molecule CC(=O)c1cc(O)c(=O)c(O)cc1C [Compound 110] has a TI of less than 1.
For Cc1cc(O)c(=O)c(O)cc1C(=O)c1ccco1 [Compound 309, 4-(furan-2-carbonyl)-2,7-dihydroxy-5-methylcyclohepta-2,4,6-trien-1-one], the TI was 1.
O=c1cccccc1O [Compound 53, Tropolone] showed a TI of 4.
COC(=O)c1c(CCl)cc(O)c(=O)c(O)c1C(=O)OC [Compound 107] was tested, and the TI was 2.
COC(=O)c1cc(O)c(=O)c(OC)cc1C [Compound 273] was tested, and the TI was 2.
With COC(=O)c1c2c(cc(O)c(=O)c1O)COC2=O [Compound 280, Methyl 5,7-dihydroxy-3,6-dioxo-3,6-dihydro-1H-cyclohepta[c]furan-4-carboxylate] the TI was 1.
Work on O=c1cccccc1Cl [Compound 57, 2-chlorotropone] yielded a TI of 1.
In the case of CC(=O)NC(CCc1ccc(Cl)c(Cl)c1)c1cccc(O)c(=O)c1 (stereo not shown) [Compound 55], the TI is reported as less than 1.
O=C(Nc1ccc(O)c(=O)cc1)c1ccccc1 [Compound 52] was tested, and the TI was 2.
Work on O=c1c(O)ccc(-c2ccc(-c3ccccc3)cc2)cc1O [Compound 264, 4-([1,1′-biphenyl]-4-yl)-2,7-dihydroxycyclohepta-2,4,6-trien-1-one] yielded a TI of less than 1.
In the case of COC(=O)c1c(C)cc(O)c(=O)c(O)c1C(=O)OC [Compound 106], the TI is reported as less than 1.
Work on Cc1cc(O)c(=O)c(O)cc1-c1ccc(C(F)(F)F)cc1 [Compound 145] yielded a TI of 1.
Cc1cc(O)c(=O)c(O)cc1C(=O)c1ccc([N+](=O)[O-])cc1 [Compound 313, 2,7-dihydroxy-4-methyl-5-(4-nitrobenzoyl)cyclohepta-2,4,6-trien-1-one] showed a TI of 2.
Work on Cc1cc(O)c(=O)c(O)cc1-c1ccc([N+](=O)[O-])cc1 [Compound 112] yielded a TI of 1.
Work on Cc1cc(O)c(=O)c(O)cc1C(=O)C1CCCCC1 [Compound 120] yielded a TI of 2.
For O=C(Oc1cccccc1=O)c1ccccc1Cl [Compound 282], the TI was 3.
Cc1cc(O)c(=O)c(O)cc1C(=O)c1cccs1 [Compound 308, 4-(thiopene-2-carbonyl)-2,7-dihydroxy-5-methylcyclohepta-2,4,6-trien-1-one] gave a TI of 2.
O=c1c(O)ccccc1O [Compound 172, 7-Hydroxytropolone] was tested, and the TI was 4.
For O=Nc1ccc(O)c(=O)cc1 [Compound 50, 5-nitrosotropolone], the TI was 1.
COc1cc(C)c(C(=O)c2ccccc2)c(C(=O)c2ccccc2)c(O)c1=O [Compound 317, (7-hydroxy-5-methoxy-3-methyl-6-oxocyclohepta-2,4,7-triene-1,2-diyl) bis (phenyl methanone)] gave a TI of 2.
Cc1cc(O)c(=O)c(O)cc1-c1ccc(Br)cc1 [Compound 114] was tested, and the TI was 1.
Molecule COCc1cc(O)c(=O)c(O)c(C(=O)OC)c1C(=O)OC [Compound 108] has a TI of 2.
Molecule Cc1cc(O)c(=O)c(O)cc1C(=O)c1ccc2ccccc2c1 [Compound 315, 4-(2-naphthoyl)-2,7-dihydroxy-5-methylcyclohepta-2,4,6-trien-1-one] has a TI of 1.
